Results are given in words; binding and its absence hold for the method and conditions named. In cells and extracts the contact can be indirect. Sequences can lack the tags named with a protein.
Target: T1, FLAG-MANF (UniProt P55145)
T1 sequence: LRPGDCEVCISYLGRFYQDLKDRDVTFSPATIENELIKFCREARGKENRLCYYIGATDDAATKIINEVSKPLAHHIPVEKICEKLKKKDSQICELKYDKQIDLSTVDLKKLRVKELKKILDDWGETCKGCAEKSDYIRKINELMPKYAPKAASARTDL
Assay: co-IP; plasmids of RNF2 truncates and MANF co-transfected to N2a cells, 36 h; lysates on anti-FLAG M2 affinity gel; blots with anti-GFP and anti-FLAG

Substance: RNF2 mutant lacking the RING-finger domain (domain or fragment)
- binding: no binding

From PMC11607471, “E3 Ubiquitin Ligase Ring Finger Protein 2 Alleviates Cerebral Ischemia–Reperfusion Injury by Stabilizing Mesencephalic Astrocyte‐Derived Neurotrophic Factor Through Monoubiquitination” (CNS Neuroscience & Therapeutics, 2024)
